From publication PMC8608904
Changes are numbered by the printed parent chain. No constants are given. Whether binding was seen depends on the method and setting. Binding seen in cells or lysates may run through a third protein. Some results given as binding are weak or reduced against the parent protein; the word gives no strength.

By UniProt entry, the sequences of proteins in these tests, tags left out.
UniProt Q91YH6: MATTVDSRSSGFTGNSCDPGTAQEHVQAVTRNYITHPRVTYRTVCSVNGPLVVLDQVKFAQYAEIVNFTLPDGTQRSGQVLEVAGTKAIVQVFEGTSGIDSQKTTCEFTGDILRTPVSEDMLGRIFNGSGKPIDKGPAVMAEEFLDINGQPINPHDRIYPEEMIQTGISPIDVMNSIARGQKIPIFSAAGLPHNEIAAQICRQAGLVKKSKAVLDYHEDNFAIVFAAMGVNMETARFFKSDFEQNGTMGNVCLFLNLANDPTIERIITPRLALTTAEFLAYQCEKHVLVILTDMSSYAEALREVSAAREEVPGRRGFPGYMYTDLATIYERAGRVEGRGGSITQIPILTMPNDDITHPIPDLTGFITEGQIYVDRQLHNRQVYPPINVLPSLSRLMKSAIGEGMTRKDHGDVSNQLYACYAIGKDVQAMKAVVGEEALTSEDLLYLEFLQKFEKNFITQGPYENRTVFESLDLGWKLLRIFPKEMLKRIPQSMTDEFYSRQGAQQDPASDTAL

Key:
Test in all cases: pull-down; about 14 pmol purified GST-tagged bait on glutathione-Sepharose 4B beads, incubated with mouse kidney lysate (25 mM Tris-HCl pH 7.4, 150 mM NaCl, 5 mM EDTA, 1% Triton X-100); western blot with anti-B1; only the target purified
[1] = biological target: T1, G802A mutant of the TLDc domain of Ncoa7 (775–943) (mouse) (UniProt Q6DFV7)
T1 sequence: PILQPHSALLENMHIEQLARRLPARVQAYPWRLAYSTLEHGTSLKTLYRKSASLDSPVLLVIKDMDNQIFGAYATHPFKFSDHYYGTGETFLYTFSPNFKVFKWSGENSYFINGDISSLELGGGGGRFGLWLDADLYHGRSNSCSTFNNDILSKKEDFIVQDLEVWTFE

[2] = biological target: T2, E938A mutant of the TLDc domain of Ncoa7 (775–943) (mouse) (UniProt Q6DFV7)
T2 sequence: T1 sequence with A28G, E164A

[3] = biological target: T3, L926A mutant of the TLDc domain of Ncoa7 (775–943) (mouse) (UniProt Q6DFV7)
T3 sequence: T1 sequence with A28G, L152A

B1 subunit of V-ATPase (from UniProt Q91YH6 1-513)
binding [1]: binds | binding [2]: binds | binding [3]: binds weakly
